Test results: patent US11110195B2, “Esculentin 1a derivatives and uses thereof” (University of Houston System, priority 2013, dated 2021)
Some entries share one result that the patent states for a list of compounds. Non-standard residues stand in square brackets, D forms with d. Residues, ends and D or L forms follow the SMILES beside them.

Tested on: A549 cells
Experiment: MTT viability assay, A549 cells
Conditions: 24 h
Procedure: Cell viability is expressed as percentage with respect to the control (cells not treated with the peptides). Data points represent the mean of triplicate samples ±SEM. […] The levels of statistical significance between the two peptides are indicated as follows: **p<0.01, ***p<0.001.
Cells were plated in wells of a microtiter plate, at 4×10^4 cells/well in DMEM supplemented with 2 mM glutamine and 2% FBS (for A549 cells) or DMEM containing 2 mM glutamine, non-essential amino acids (NEAA), sodium pyruvate and 2% FBS (for Raw 264.7 macrophages). After overnight incubation at 37° C. in a 5% CO2 atmosphere, the medium was replaced with 100 μl fresh serum-free medium supplemented with the peptides at different concentrations. After 24 h of peptide treatment, cell viability was determined by a MTT assay.

## CC[C@H](C)[C@H](NC(=O)CN)C(=O)N[C@@H](Cc1ccccc1)C(=O)N[C@@H](CO)C(=O)N[C@@H](CCCCN)C(=O)N[C@@H](CC(C)C)C(=O)N[C@@H](C)C(=O)NCC(=O)N[C@@H](CCCCN)C(=O)N[C@@H](CCCCN)C(=O)N[C@H](C(=O)N[C@@H](CCCCN)C(=O)N[C@@H](CC(N)=O)C(=O)N[C@H](CC(C)C)C(=O)N[C@@H](CC(C)C)C(=O)N[C@H](C(=O)N[C@H](CO)C(=O)NCC(=O)N[C@@H](CC(C)C)C(=O)N[C@@H](CCCCN)C(=O)NCC(N)=O)[C@@H](C)CC)[C@@H](C)CC [Esc-1a(1-21)-1cNH2] (H-GIFSKLAGKKIKN[dL]LI[dS]GLKG-NH2; N-terminus assumed)
  concentration without significant reduction in living cells: ≤ 64 µM

## CC[C@H](C)[C@H](NC(=O)CN)C(=O)N[C@@H](Cc1ccccc1)C(=O)N[C@@H](CO)C(=O)N[C@@H](CCCCN)C(=O)N[C@@H](CC(C)C)C(=O)N[C@@H](C)C(=O)NCC(=O)N[C@@H](CCCCN)C(=O)N[C@@H](CCCCN)C(=O)N[C@H](C(=O)N[C@@H](CCCCN)C(=O)N[C@@H](CC(N)=O)C(=O)N[C@@H](CC(C)C)C(=O)N[C@@H](CC(C)C)C(=O)N[C@H](C(=O)N[C@@H](CO)C(=O)NCC(=O)N[C@@H](CC(C)C)C(=O)N[C@@H](CCCCN)C(=O)NCC(N)=O)[C@@H](C)CC)[C@@H](C)CC [Esc-1a(1-21)NH2] (H-GIFSKLAGKKIKNLLISGLKG-NH2; N-terminus assumed)
  concentration without significant reduction in living cells: ≤ 64 µM
